For test [1], the target named is T1, Human macrophage mannose receptor (MMR) expressed on human immature monocyte-derived dendritic cells (human) (UniProt P22897).
T1 sequence: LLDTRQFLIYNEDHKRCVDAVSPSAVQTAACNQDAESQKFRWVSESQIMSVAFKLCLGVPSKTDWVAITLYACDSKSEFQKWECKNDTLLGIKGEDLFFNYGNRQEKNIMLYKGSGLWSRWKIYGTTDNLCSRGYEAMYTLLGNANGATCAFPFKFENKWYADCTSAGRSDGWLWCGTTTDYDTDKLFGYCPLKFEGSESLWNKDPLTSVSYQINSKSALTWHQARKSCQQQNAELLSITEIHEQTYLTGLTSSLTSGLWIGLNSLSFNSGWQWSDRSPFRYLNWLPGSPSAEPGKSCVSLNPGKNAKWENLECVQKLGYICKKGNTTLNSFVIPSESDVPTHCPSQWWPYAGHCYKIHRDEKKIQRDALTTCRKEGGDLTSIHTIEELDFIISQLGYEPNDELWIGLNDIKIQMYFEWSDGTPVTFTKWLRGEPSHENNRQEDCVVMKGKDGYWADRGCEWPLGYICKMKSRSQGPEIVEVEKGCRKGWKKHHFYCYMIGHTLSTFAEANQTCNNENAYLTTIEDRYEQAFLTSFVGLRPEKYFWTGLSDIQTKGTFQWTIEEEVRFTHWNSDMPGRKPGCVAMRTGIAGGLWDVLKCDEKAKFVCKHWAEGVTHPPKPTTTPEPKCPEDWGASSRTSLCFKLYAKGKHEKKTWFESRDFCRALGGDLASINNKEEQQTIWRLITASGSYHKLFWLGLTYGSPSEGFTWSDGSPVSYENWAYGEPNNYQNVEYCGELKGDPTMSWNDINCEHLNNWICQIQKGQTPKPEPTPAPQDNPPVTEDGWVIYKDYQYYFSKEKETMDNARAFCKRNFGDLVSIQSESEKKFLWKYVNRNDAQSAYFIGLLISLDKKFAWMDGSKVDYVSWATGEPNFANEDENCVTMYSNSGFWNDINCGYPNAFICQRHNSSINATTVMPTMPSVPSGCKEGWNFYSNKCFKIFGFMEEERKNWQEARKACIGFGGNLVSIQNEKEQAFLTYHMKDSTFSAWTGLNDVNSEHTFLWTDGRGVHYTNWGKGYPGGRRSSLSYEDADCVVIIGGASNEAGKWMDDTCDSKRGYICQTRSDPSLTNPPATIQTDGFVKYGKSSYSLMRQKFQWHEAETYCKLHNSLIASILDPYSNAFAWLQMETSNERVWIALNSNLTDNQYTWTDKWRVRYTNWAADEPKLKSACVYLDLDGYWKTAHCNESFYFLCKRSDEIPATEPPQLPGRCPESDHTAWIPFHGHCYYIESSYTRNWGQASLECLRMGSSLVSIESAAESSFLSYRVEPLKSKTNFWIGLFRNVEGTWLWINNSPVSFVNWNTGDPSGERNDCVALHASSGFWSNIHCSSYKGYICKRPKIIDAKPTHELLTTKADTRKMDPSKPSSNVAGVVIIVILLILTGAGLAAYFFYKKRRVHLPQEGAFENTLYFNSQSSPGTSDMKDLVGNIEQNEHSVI
Put plainly: condition: 10 µg/ml (from paragraph 134; no concentration on the sheet); flow cytometry on CD11c+ human immature monocyte-derived dendritic cells, HA-tagged Nb detected with Alexa Fluor 488 anti-HA. On the technique in general: In flow cytometry, cells or beads pass a laser one at a time.

Test [2] addresses T1, Human macrophage mannose receptor (MMR) expressed on human immature monocyte-derived dendritic cells (human). Put plainly: flow cytometry on CD11c+ human immature dendritic cells, anti-HA detection.

Results are given in words; binding and its absence hold for the method and conditions named.

B1: anti-mouse MMR sdAb clone 1 (VHH)
VHH: QVQLQESGGGLVQPGGSLRLSCAASGNIFSINAIGWYRQAPGKQRELVATITLSGSTNYADSVKGRFSISRDNAKNTVYLQMNSLKPEDTAVYYCNANTYSDSDVYGYWGQGTQVTVSS
notes: also called anti-mMMR Nb clone 1; anti-mouse MMR clone 1
On to B1, for which the values for the binding result in test [1] and in test [2] were “no binding” and “no binding (tested: 10 ug/ml)”, respectively.

The record behind these values is patent US20150093336A1 (VIB VZW, published 2015).
